According to PMC3585722:
No constants are given. Whether binding was seen depends on the method and setting. Binding can be weak; no strength is given. For some assays here: Binding seen in cells or lysates may run through a third protein.

Sequences of proteins named here, by UniProt entry; tags and fusion partners are left off. A change or cut given only in a name is not applied to a line headed by its entry.
UniProt P31431: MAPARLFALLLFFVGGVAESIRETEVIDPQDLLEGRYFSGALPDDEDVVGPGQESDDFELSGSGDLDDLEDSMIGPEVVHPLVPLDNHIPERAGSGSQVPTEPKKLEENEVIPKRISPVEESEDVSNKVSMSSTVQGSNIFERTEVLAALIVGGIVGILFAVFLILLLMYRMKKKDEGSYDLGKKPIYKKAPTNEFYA
UniProt P26447: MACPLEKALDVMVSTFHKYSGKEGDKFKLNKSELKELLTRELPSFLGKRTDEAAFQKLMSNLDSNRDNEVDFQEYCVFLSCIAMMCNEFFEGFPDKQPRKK

Legend:
[1] = target: recombinant human syndecan-4 (with his-tag) (human) (UniProt P31431); assay: co-IP; in vitro crosslinking reaction of S100A4 with gplTG, with or without TG inhibitor R283, then 1 µg recombinant human syndecan-4 at 37°C for 1 h; beads with anti-syndecan-4 antibody; Western blot for S100A4; both purified
[2] = target: recombinant human S100A4 (after cleavage of the his-tags) (human) (UniProt P26447); assay: ELISA; solid phase binding assay: S100A4 (his-tags removed, 1 μg/ml, Na2CO3 pH 9.6) coated on 96-well plates; 2 μg/ml his-tagged syndecan-4 in 50 mM Tris-HCl pH 7.4, 37°C, 1 h; detected by anti-his-tag antibody, OPD, 490 nm; both purified

binding [1] | binding [2] | Substance
binds |  | recombinant human S100A4 (after cleavage of the his-tags) (from UniProt P26447 1-101)
 | binds | recombinant human syndecan-4 (with his-tag) (from UniProt P31431) (receptor)
